# Some of the results follow.
# How the values were obtained:
# Assay in all cases: glycan array binding signal (z-score within array); higher = stronger binding
# Conditions in all cases: glycan notation: IUPAC condensed, linker removed
# [1] = biological target: Gal(b1-4)GlcNAc(b1-2)Man(a1-6)[Man(a1-3)]Man(b1-4)GlcNAc(b1-4)GlcNAc
# Procedure, shortened: (§1)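 The binding signal is a Z-score computed within each array. Data were drawn from 3228 arrays in the Consortium for Functional Glycomics database, restricted to those with a known protein sequence. Scores were averaged over arrays of the same protein sequence at different concentrations or buffers, and over linkers, and negative values can be taken as non-binding.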
# [2] = biological target: Gal(b1-4)GlcNAc(b1-2)[Gal(b1-4)GlcNAc(b1-4)]Man(a1-3)[Gal(b1-4)GlcNAc(b1-2)Man(a1-6)]Man(b1-4)GlcNAc(b1-4)GlcNAc
# Procedure, shortened: as §1
# [3] = biological target: Gal(b1-4)GlcNAc(b1-2)[Gal(b1-4)GlcNAc(b1-4)]Man(a1-3)[Gal(b1-4)GlcNAc(b1-2)[Gal(b1-4)GlcNAc(b1-6)]Man(a1-6)]Man(b1-4)GlcNAc(b1-4)GlcNAc
# Procedure, shortened: as §1
# [4] = biological target: Gal(b1-4)GlcNAc(b1-2)[Gal(b1-4)GlcNAc(b1-4)]Man(a1-3)[GlcNAc(b1-4)][Gal(b1-4)GlcNAc(b1-2)Man(a1-6)]Man(b1-4)GlcNAc(b1-4)GlcNAc
# Procedure, shortened: as §1
# [5] = biological target: Gal(b1-4)GlcNAc(b1-2)[Gal(b1-4)GlcNAc(b1-4)]Man(a1-3)[GlcNAc(b1-4)][Gal(b1-4)GlcNAc(b1-2)[Gal(b1-4)GlcNAc(b1-6)]Man(a1-6)]Man(b1-4)GlcNAc(b1-4)GlcNAc
# Procedure, shortened: as §1
# [6] = biological target: Gal(b1-4)GlcNAc(b1-2)[Gal(b1-4)GlcNAc(b1-6)]Man(a1-6)[Gal(b1-4)GlcNAc(b1-2)Man(a1-3)]Man(b1-4)GlcNAc(b1-4)GlcNAc
# Procedure, shortened: as §1
# [7] = biological target: Gal(b1-4)GlcNAc(b1-2)[Gal(b1-4)GlcNAc(b1-6)]Man(a1-6)[Gal(b1-4)GlcNAc(b1-2)Man(a1-3)]Man(b1-4)GlcNAc(b1-4)[Fuc(a1-6)]GlcNAc
# Procedure, shortened: as §1
# [8] = biological target: Gal(b1-4)GlcNAc(b1-2)[Gal(b1-4)GlcNAc(b1-6)]Man(a1-6)[GlcNAc(b1-4)][Gal(b1-4)GlcNAc(b1-2)Man(a1-3)]Man(b1-4)GlcNAc(b1-4)GlcNAc
# Procedure, shortened: as §1
# [9] = biological target: Gal(b1-4)GlcNAc(b1-2)[Gal(b1-4)GlcNAc(b1-6)]Man(a1-6)[GlcNAc(b1-4)][Gal(b1-4)GlcNAc(b1-2)[Gal(b1-4)GlcNAc(b1-4)]Man(a1-3)]Man(b1-4)GlcNAc(b1-4)[Fuc(a1-6)]GlcNAc
# Procedure, shortened: as §1
# [10] = biological target: Gal(b1-4)GlcNAc(b1-3)Gal(b1-3)GalNAc
# Procedure, shortened: as §1
# [11] = biological target: Gal(b1-4)GlcNAc(b1-3)Gal(b1-3)GlcNAc
# Procedure, shortened: as §1
# [12] = biological target: Gal(b1-4)GlcNAc(b1-3)Gal(b1-4)Glc
# Procedure, shortened: as §1
# [13] = biological target: Gal(b1-4)GlcNAc(b1-3)Gal(b1-4)GlcNAc
# Procedure, shortened: as §1
# [14] = biological target: Gal(b1-4)GlcNAc(b1-3)Gal(b1-4)GlcNAc(b1-2)Man(a1-3)[Gal(b1-4)GlcNAc(b1-3)Gal(b1-4)GlcNAc(b1-2)Man(a1-6)]Man(b1-4)GlcNAc(b1-4)GlcNAc
# Procedure, shortened: as §1
# [15] = biological target: Gal(b1-4)GlcNAc(b1-3)Gal(b1-4)GlcNAc(b1-2)Man(a1-3)[Gal(b1-4)GlcNAc(b1-3)Gal(b1-4)GlcNAc(b1-2)Man(a1-6)]Man(b1-4)GlcNAc(b1-4)[Fuc(a1-6)]GlcNAc
# Procedure, shortened: as §1
# [16] = biological target: Gal(b1-4)GlcNAc(b1-3)Gal(b1-4)GlcNAc(b1-2)[Gal(b1-4)GlcNAc(b1-3)Gal(b1-4)GlcNAc(b1-6)]Man(a1-6)[Gal(b1-4)GlcNAc(b1-3)Gal(b1-4)GlcNAc(b1-2)Man(a1-3)]Man(b1-4)GlcNAc(b1-4)GlcNAc
# Procedure, shortened: as §1
# [17] = biological target: Gal(b1-4)GlcNAc(b1-3)Gal(b1-4)GlcNAc(b1-2)[Gal(b1-4)GlcNAc(b1-3)Gal(b1-4)GlcNAc(b1-6)]Man(a1-6)[Gal(b1-4)GlcNAc(b1-3)Gal(b1-4)GlcNAc(b1-2)Man(a1-3)]Man(b1-4)GlcNAc(b1-4)[Fuc(a1-6)]GlcNAc
# Procedure, shortened: as §1
# [18] = biological target: Gal(b1-4)GlcNAc(b1-3)Gal(b1-4)GlcNAc(b1-3)Gal(b1-4)GlcNAc
# Procedure, shortened: as §1
# [19] = biological target: Gal(b1-4)GlcNAc(b1-3)Gal(b1-4)GlcNAc(b1-3)Gal(b1-4)GlcNAc(b1-2)Man(a1-3)[Gal(b1-4)GlcNAc(b1-3)Gal(b1-4)GlcNAc(b1-3)Gal(b1-4)GlcNAc(b1-2)Man(a1-6)]Man(b1-4)GlcNAc(b1-4)GlcNAc
# Procedure, shortened: as §1
# [20] = biological target: Gal(b1-4)GlcNAc(b1-3)Gal(b1-4)GlcNAc(b1-3)Gal(b1-4)GlcNAc(b1-2)Man(a1-3)[Gal(b1-4)GlcNAc(b1-3)Gal(b1-4)GlcNAc(b1-3)Gal(b1-4)GlcNAc(b1-2)Man(a1-6)]Man(b1-4)GlcNAc(b1-4)[Fuc(a1-6)]GlcNAc
# Procedure, shortened: as §1
# [21] = biological target: Gal(b1-4)GlcNAc(b1-3)Gal(b1-4)GlcNAc(b1-3)Gal(b1-4)GlcNAc(b1-2)[Gal(b1-4)GlcNAc(b1-3)Gal(b1-4)GlcNAc(b1-3)Gal(b1-4)GlcNAc(b1-6)]Man(a1-6)[Gal(b1-4)GlcNAc(b1-3)Gal(b1-4)GlcNAc(b1-3)Gal(b1-4)GlcNAc(b1-2)Man(a1-3)]Man(b1-4)GlcNAc(b1-4)[Fuc(a1-6)]GlcNAc
# Procedure, shortened: as §1
# [22] = biological target: Gal(b1-4)GlcNAc(b1-3)Gal(b1-4)GlcNAc(b1-3)Gal(b1-4)GlcNAc(b1-3)Gal(b1-4)GlcNAc(b1-2)Man(a1-3)[Gal(b1-4)GlcNAc(b1-3)Gal(b1-4)GlcNAc(b1-3)Gal(b1-4)GlcNAc(b1-3)Gal(b1-4)GlcNAc(b1-2)Man(a1-6)]Man(b1-4)GlcNAc(b1-4)GlcNAc
# Procedure, shortened: as §1
binder,measurement,setting,value
"AntigenI/IIA3VP1 (Streptococcus mutans), C9E3B4 (protein) AANEADYQAKLTAYQTELARVQKANADAKAAYEAAVAANNAANAALTAENTAIKKRNADAKADYEAKLAKYQADLAKYQKDLADYPVKLKAYEDEQASIKAALAELEKHKNEDGNLTEPSAQNLVYDLEPNANLSLTTDGKFLKASAVDDAFSKSTSKAKYDQKILQLDDLDITNLEQSNDVASSMELYGNFGDKAGWSTTVSNNSQVKWGSVLLERGQSATATYTNLQNSYYNGKKISKIVYKYTVDPKSKFQGQKVWLGIFTDPTLGVFASAYTGQVEKNTSIFIKNEFTFYDEDGKPINFDNALLSVASLNREHNSIEMAKDYSGKFVKISGSSIGEKNGMIYATDTLNFKQGEGGSRWTMYKNSQAGSGWDSSDAPNSWYGAGAIKMSGPNNYVTVGATSATNVMPVSDMPVVPGKDNTDGKKPNIWYSLNGKIRAVNVPKVTKEKPTPPVKPTAPTKPTYETEKPLKPAPVAPNYEKEPTPPTRLEHHHHHH",glycan array binding signal (z-score),[1],0.473
same,glycan array binding signal (z-score),[2],-0.519
same,glycan array binding signal (z-score),[3],0.027
same,glycan array binding signal (z-score),[4],-0.31
same,glycan array binding signal (z-score),[5],0.598
same,glycan array binding signal (z-score),[6],-0.418
same,glycan array binding signal (z-score),[7],-0.251
same,glycan array binding signal (z-score),[8],-0.581
same,glycan array binding signal (z-score),[9],-0.574
same,glycan array binding signal (z-score),[10],-0.492
same,glycan array binding signal (z-score),[11],0.173
same,glycan array binding signal (z-score),[12],-0.381
same,glycan array binding signal (z-score),[13],-0.087
same,glycan array binding signal (z-score),[14],0.701
same,glycan array binding signal (z-score),[15],2.04
same,glycan array binding signal (z-score),[16],1.55
same,glycan array binding signal (z-score),[17],1.53
same,glycan array binding signal (z-score),[18],-0.396
same,glycan array binding signal (z-score),[19],0.927
same,glycan array binding signal (z-score),[20],1.39
same,glycan array binding signal (z-score),[21],1.81
same,glycan array binding signal (z-score),[22],2.52
